Test results from patent US11434267B2, “Peptides having reduced toxicity that stimulate cholesterol efflux” (The Regents of the University of California, priority 2013, dated 2022).
Part of at least one peptide drawing is inferred or uncertain, most often the ends. Non-standard residues stand in square brackets, D forms with d. Residues, ends and D or L forms follow the SMILES beside them. Cit = NC(=O)NCCC[C@H](N)C(=O)O

Sequences of proteins named here, by UniProt entry; tags and fusion partners are left off. A change or cut given only in a name is not applied to a line headed by its entry.
UniProt P41233: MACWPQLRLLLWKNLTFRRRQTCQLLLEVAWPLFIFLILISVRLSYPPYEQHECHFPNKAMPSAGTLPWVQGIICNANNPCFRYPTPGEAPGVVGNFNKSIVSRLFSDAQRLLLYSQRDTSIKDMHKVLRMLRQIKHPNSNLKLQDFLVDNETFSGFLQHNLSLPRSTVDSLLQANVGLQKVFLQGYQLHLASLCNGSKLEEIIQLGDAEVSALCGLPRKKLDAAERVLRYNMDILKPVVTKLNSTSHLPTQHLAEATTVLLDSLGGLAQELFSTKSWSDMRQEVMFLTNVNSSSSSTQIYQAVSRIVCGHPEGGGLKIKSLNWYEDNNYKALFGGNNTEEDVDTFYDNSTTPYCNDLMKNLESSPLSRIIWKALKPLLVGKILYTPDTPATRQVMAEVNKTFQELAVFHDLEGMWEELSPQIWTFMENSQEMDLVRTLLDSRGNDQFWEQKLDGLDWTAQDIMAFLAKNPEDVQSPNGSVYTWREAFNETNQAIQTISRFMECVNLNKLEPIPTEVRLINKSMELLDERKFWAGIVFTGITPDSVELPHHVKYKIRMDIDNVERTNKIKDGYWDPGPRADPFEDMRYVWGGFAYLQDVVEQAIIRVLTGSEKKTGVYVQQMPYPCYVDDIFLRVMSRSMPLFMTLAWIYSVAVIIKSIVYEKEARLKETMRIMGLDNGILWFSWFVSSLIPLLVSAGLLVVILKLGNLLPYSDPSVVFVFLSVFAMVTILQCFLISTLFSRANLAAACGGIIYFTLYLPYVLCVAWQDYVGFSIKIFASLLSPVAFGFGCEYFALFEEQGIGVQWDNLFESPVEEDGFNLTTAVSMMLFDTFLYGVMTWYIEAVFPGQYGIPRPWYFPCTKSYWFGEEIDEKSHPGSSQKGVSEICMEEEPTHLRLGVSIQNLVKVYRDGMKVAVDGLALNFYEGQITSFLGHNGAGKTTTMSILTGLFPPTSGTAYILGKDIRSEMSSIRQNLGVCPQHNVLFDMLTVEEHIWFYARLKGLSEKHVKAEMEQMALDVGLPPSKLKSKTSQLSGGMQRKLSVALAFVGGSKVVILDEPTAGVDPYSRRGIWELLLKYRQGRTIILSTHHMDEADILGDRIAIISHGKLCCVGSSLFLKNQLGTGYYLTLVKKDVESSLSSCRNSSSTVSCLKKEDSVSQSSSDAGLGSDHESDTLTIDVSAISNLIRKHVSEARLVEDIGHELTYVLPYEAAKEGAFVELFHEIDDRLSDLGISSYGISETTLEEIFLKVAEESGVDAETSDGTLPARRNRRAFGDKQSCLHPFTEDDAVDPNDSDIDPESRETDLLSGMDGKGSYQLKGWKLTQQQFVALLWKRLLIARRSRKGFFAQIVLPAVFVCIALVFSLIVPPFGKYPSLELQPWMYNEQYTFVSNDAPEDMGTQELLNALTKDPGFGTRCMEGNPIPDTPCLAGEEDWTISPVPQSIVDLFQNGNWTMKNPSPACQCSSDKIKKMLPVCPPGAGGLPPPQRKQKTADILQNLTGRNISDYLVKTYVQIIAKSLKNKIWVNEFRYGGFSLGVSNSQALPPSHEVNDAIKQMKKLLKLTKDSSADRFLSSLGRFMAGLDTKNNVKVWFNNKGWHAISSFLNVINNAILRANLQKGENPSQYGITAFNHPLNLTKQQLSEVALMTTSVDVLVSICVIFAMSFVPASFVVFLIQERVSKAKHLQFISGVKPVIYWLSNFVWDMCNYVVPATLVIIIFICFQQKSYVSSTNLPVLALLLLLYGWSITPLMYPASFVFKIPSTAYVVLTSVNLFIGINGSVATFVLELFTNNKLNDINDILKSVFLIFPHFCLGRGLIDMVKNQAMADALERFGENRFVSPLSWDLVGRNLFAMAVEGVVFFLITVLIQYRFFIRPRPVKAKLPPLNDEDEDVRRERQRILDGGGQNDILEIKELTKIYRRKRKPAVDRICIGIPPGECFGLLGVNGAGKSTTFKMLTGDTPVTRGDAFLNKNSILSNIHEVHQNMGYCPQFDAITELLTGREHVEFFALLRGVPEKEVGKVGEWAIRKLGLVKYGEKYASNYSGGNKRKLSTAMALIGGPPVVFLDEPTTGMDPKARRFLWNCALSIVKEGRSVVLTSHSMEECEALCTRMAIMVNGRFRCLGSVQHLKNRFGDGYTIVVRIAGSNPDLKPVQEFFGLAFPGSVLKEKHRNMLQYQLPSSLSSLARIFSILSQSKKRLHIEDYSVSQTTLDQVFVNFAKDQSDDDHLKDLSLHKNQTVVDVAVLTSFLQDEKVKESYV

How the values were obtained:
ABCA1 [1] = molecular target: T1, ABCA1 (Mus musculus, UniProt P41233); assay: ABCA1-dependent cholesterol efflux from [3H]cholesterol-labeled J774 macrophages with and without cAMP; format: cell-based
T1 construct: treated (18 h) with a cAMP analog to induce ABCA1 protein expression; endogenous in cells; host or cells: J774 macrophages
Description: Suitable cholesterol efflux assays are described in, e.g., Bielicki, J. K and Oda, M. N., Biochemistry, 41:2089-2096 (2002); Jia et al., Biochem. Biophys. Res. Common., 297:206-213 (2002). In some embodiments, a polypeptide known to mediate cholesterol efflux (e.g., helix 9/10 of Apo A-I) is used to screen for additional mediators of cholesterol efflux in a cell based assay. For example, cell lines in which cholesterol efflux can be enhanced using a cAMP analog that up-regulates ABCA1 protein expression (e.g., J774 macrophages) can conveniently be used to assess the ability of a polypeptide of the present invention to mediate cholesterol efflux. The cells are incubated with labeled cholesterol (e.g., [^3H]cholesterol) under conditions appropriate for cholesterol uptake by the cells. Thus, cAMP or cAMP analogs (e.g., CPT-cAMP) are incubated with the cells for a suitable time before the initiation of cellular cholesterol efflux, i.e., prior to contacting the cells with a test polypeptide. Measurement of labeled cholesterol appearing in the medium is used to determine the cholesterol efflux mediating activity of the test polypeptide.
Aliphatic analogs of ATI-5261 lacking phenylalanine residues retained potent ABCA1 selective cholesterol efflux activity (FIG. 7). J774 macrophages were labeled (48 h) with [^3H]cholesterol and treated (18 h) with a cAMP analog to induce ABCA1 protein expression; cells incubated in the absence of cAMP (left bars) served as controls. […] Peptides were used at a concentration of 30 μg/ml, which was maximal for promoting cholesterol efflux activity. Panel B—Dependence of cholesterol efflux on the concentration of peptides. […] Results are expressed as the difference in cholesterol efflux (%/4 h) observed using cAMP treated vs. non-treated J774 cells. Values are means±SD, n=3.

ABCA1 [2] = molecular target: T1, ABCA1; assay: ABCA1 protein stabilization in J774 macrophages (Western blot); format: cell-based; details: J774 after cAMP, 6 h chase
Procedure: In some embodiments, the stabilization of ABCA is measured by direct measurement of ABCA (e.g., ABCA protein, or nucleic acid) using a cell based assay. Cell based assays can be performed in any cells in which ABCA is expressed (e.g., J774 macrophages), including cells which have been transfected with ABCA (e.g. HeLa cells). Any cell type can be used. For example, J774 macrophages can be used to assess relative ABCA1 protein levels in the presence and absence of polypeptides of the invention. The cells are first contacted with a compound that will induce ABCA (e.g., cAMP or a cAMP analogue such as, 8-bromo-cAMP) to upregulate ABCA (e.g., ABCA1) expression, then exposed to […] polypeptides of the invention in the absence of the cAMP stimulus to evaluate whether ABCA1 protein was stabilized or degraded. Relative levels of ABCA1 protein can be assessed using any means known in the art including, e.g., immunoblot analysis of cell membranes (Oram et al., J. Biol. Chem., 278:52379-52385 (2003)) or hybridization of nucleic acid probes to ABCA mRNA.
(FIG. 29). J774 macrophages were used for experiments. Panel A—Cells were labeled (48 h) with 3H cholesterol and treated with (right bars) and without (left bars) a cAMP analog to modulate ABCA1 expression. […]

human plasma = assay: Cholesterol efflux activity of human plasma treated with lipid-free peptide (J774 cells); format: cell-based; details: plasma + 300 μg/ml peptide 5 min 4° C., diluted to 1%, cAMP treated J774
Procedure: (FIG. 33). To test whether CS6253 exerts anti-atherogenic effects in a biological milieu, human plasma was exposed (5 min) to lipid-free peptide. Interactions of CS6253 with HDL in plasma and activity of plasma to stimulate cholesterol efflux was assessed; the latter using J774 macrophages labeled with [3H]cholesterol. Panel A—Cholesterol efflux activity of plasma treated with lipid-free peptides. Human plasma was incubated with 300 μg/ml peptides for 5 minutes (4° C.), diluted to 1% in serum-free RPMI-1640 culture medium and immediately added to [3H]cholesterol-labeled J774 cells. […] Panel B—Induction of preβ HDL upon treatment of human plasma with CS6253. Plasma was exposed to a small amount of peptide relative to endogenous apoA-I (1:10 mole ratio, respectively) and formation of preβ HDL assessed by 2D non-denaturing gradient gel electrophoresis (NDGGE) and western blot analysis. […] The results are consistent with the production of authentic preβ HDL particles composed entirely of endogenous apoA-I.
To test whether T6991-2 exerts anti-atherogenic effects in a biological milieu, human plasma was exposed (5 min) to lipid-free peptide. Interactions of T6991-2 with HDL in plasma and activity of plasma to stimulate cholesterol efflux was assessed using J774 macrophages labeled with [3H]cholesterol. Panel A—Cholesterol efflux activity of plasma treated with lipid-free peptides. […]

HDL in plasma = assay: Induction of preβ HDL in human plasma (2D NDGGE and western blot); format: biochemical
[3] = tested on: human E4 (huApoE4) replacement mice; assay: AD study in human apoE4 replacement mice (hippocampus); format: in vivo, mouse
[4] = huApoE4 mice, 30 mg/kg/48 h IP 5 weeks, vs PBS

**Q.** `CC(C)C[C@H](NC(=O)[C@H](C)NC(=O)[C@H](C)NC(=O)[C@H](CC(C)C)NC(=O)[C@H](Cc1c[nH]c2ccccc12)NC(=O)[C@H](CCC(=O)O)NC(=O)[C@H](CCC(=O)O)NC(=O)[C@H](CC(C)C)NC(=O)[C@H](CCCCN)NC(=O)[C@H](CO)NC(=O)[C@H](CCCNC(N)=O)NC(=O)[C@@H](NC(=O)[C@@H](N)CCC(=O)O)C(C)C)C(=O)N[C@@H](CCCNC(N)=O)C(=O)N[C@@H](CCC(=O)O)C(=O)N[C@@H](CC(C)C)C(=O)N[C@@H](C)C(=O)N[C@@H](CCC(=O)O)C(=O)N[C@@H](CCC(=O)O)C(=O)N[C@@H](CC(C)C)C(=O)N[C@@H](CC(C)C)C(=O)N[C@@H](C)C(=O)N[C@@H](CCCNC(=N)N)C(=O)N[C@@H](CC(C)C)C(=O)N[C@@H](CCCCN)C(=O)N[C@@H](CO)C(=O)O` [CS6253] (H-EV[Cit]SKLEEWLAAL[Cit]ELAEELLARLKS-OH) was tested. Which “rate kinetics of cholesterol efflux” value (ABCA1 [1]; J774, lipid-free, 10 μg/ml, vs full-length apoA-I) did it give?
**A.** The value was “same rate kinetics as full-length apoA-I”.

**Q.** What about the “peptide concentration at saturation of cholesterol efflux” value (ABCA1 [1]; cAMP treated J774, dose response, 4 h) of the same compound?
**A.** The value was 3 µg/mL.

**Q.** What about the “ABCA1 protein level (stabilization)” value (ABCA1 [2]) of the same compound?
**A.** The value was “maintained at high-levels”.

**Q.** What about the “capacity of treated plasma to stimulate cholesterol efflux via ABCA1” value (human plasma) of the same compound?
**A.** The value was “possessed greater capacity to stimulate cholesterol efflux”.

**Q.** What about the “association of peptide with α-HDL” value (HDL in plasma; antibody against CS6253) of the same compound?
**A.** Its value is “associated with α-HDL in plasma”.

**Q.** And the “preβ HDL formation” value (HDL in plasma; peptide:apoA-I 1:10 mole ratio, apoA-I antibody)?
**A.** Its value is “increase in preβ HDL”.

**Q.** What about the “lipidated apoE4 in hippocampus (native gel)” value ([3]; 30 mg/kg/48 h IP for 5 weeks) of the same compound?
**A.** Its value is “increased the amount of lipidated apoE4”.

**Q.** What about the “P-Tau (AT-8), CA3 region of hippocampus” value [3, 4] of the same compound?
**A.** Its value is “significantly decreased”.

**Q.** And the “amyloidβ42, CA3 region of hippocampus” value [3, 4]?
**A.** Its value is “significantly decreased”.

**Q.** What about the “VGluT1 level, CA3 region of hippocampus” value ([3]; huApoE4 mice, vs PBS) of the same compound?
**A.** Its value is “reversed the deficiency”.

**Q.** And the “apoER2 level, CA3 region of hippocampus” value ([3]; huApoE4 mice, vs PBS)?
**A.** The value was “reversed the deficiency”.
